Measured values from the supplement of paper PMC12009310.
Counter-ions that a name gives are not always drawn. ± gives the standard deviation of the averaged measurements. Some of the results follow. Baselines shift from plate to plate; read single values as rough.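 The cells are a mouse kidney inner medullary collecting duct line, silenced either for the ciliary gene Rpgrip1l or with a non-targeting control siRNA.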

Assays:
mIMCD3 [1] = assay: robust z score of cell number vs plate controls; higher = more cells (less cytotoxic); conditions: 10 µM, 48 h
mIMCD3 [2] = assay: robust z score of cilia incidence (% cells with single cilium) vs plate controls; higher = more ciliated cells; conditions: 10 µM; 48 h; siRNA: siScr
mIMCD3 [3] = assay: robust z score of cilia incidence (% cells with single cilium) vs plate controls; higher = more ciliated cells (rescue of cilia loss); conditions: 10 µM; 48 h; siRNA: siRpgrip1l

SMILES | robust z score of cell number (mIMCD3 [1]; siRNA: siRpgrip1l) | robust z score of cell number (mIMCD3 [1]; siRNA: siScr) | robust z score of cilia incidence (mIMCD3 [2]) | robust z score of cilia incidence (mIMCD3 [3])
Nc1nc(Cl)nc2c1ncn2[C@@H]1O[C@H](CO)[C@@H](O)[C@@H]1F [Clofarabine] | -32.9 ± 11 | -144 ± 110 | -66.2 ± 16 | -51.3 ± 7
O=c1cc(N2CCNCC2)oc2c(-c3ccccc3)cccc12 | -8.71 ± 6.5 | -4.83 ± 1.3 | -5.46 ± 6.3 | -13.6 ± 6.1
Oc1c2ccccc2c2c3c(cccc13)N=N2 | -147 ± 160 | -35 ± 8 | -19.1 ± 4.2 | -304 ± 170
N[C@@H](CS(=O)O)C(=O)O [L-Cysteine sulfinic acid] | 8.15 ± 10 | -2.48 ± 2.8 | 0.753 ± 1.8 | -8.38 ± 8
O=[N+]([O-])c1ccccc1S(=O)(=O)NCC1CCC(CNCC2CCc3ccccc3C2)CC1 (stereo not given) [NTNCB hydrochloride] | -41.2 ± 27 | -55.1 ± 29 | -32.9 ± 15 | -58.6 ± 14
